Results taken from PubChem BioAssay AID624291 (National Center for Advancing Translational Sciences (NCATS), 2012).
Out of some 350,000 compounds screened, about 220 (0.063%) were called active. This list was built around the results that the source calls inconclusive (neither active nor inactive); the mix of calls is not that of the screen. Calls come from the whole dose curve; as a rule, active = well fitted activation curve with a large enough effect; inconclusive = small, poorly fitted or top-dose-only effect; inactive = no such curve, though single readings can be large or run the other way. A potency beside an inconclusive call is a rough fit, not a confirmed value.

assay: qHTS for Activators of Integrin-Mediated Alleviation for Muscular Dystrophy; conditions: alpha7betagal myoblasts, beta-gal FDG fluorescence, 48 h; activation: at 38.3 µM (top of the series); note: nearly all actives have a fitted effect of over 60% in size;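 for activation: 100% = response of the positive control SU9516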
How it was run: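 alpha7betagal+/- myoblasts (passage 13, 250/well) treated 48 h at 37C with compounds at 1:260 dilution of DMSO stock. Lysed, then beta-galactosidase activity read as FDG fluorescence (ex 480/em 540) after 30 min, with pre-read for autofluorescence.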
Potency is the fitted concentration of half-maximal effect.

Potency, inconclusive:
Cc1ncc([N+](=O)[O-])n1CC(=O)NC(C)(C)C 3.16 µM [activator, single point]
Cc1cccc(-c2nc(Nc3cccc(O)c3)c3ccccc3n2)c1 3.55 µM [activator, single point]
CCn1c(=S)[nH]c2scc(-c3cccs3)c2c1=O 28.2 µM [activator, single point]
COc1ccc(NC(=S)N2CCc3ccccc32)cc1OC 3.16 µM [activator, single point]
CCc1noc(C)c1C(=O)N(CC)CC(=O)NCc1ccc(Cl)cc1 10 µM [activator, partial curve, poor fit]
O=S(=O)(c1ccc(Cl)cc1)N1CCNCC1 5.01 µM [activator, single point]
CN1CCc2nc(SCC(=O)Nc3ccc(OC(F)(F)F)cc3)c(C#N)c(-c3cccs3)c2C1 31.6 µM [activator, single point]
CCOC(=O)c1c(CSC(=N)N)n(-c2ccc(C)cc2)c2cc(Br)c(OC(C)=O)cc12 28.2 µM [activator, single point]
O=C(NN=C1CCCCCC1)c1ccc(Cl)s1 1.12 µM [activator, partial curve, poor fit]
Cn1nccc1C(=O)Nc1cc(Cl)ccc1Cl 0.447 µM [activator, partial curve, poor fit]
CCOc1ccc(Br)cc1S(=O)(=O)N1CCCN(C)CC1 10 µM [activator, single point]
COc1ccc(CCNC(=O)C(=O)NCC2OCCN2S(=O)(=O)c2cccs2)cc1 (stereo not given) 5.01 µM [activator, single point]
COc1cccc(CNC(=O)CN2C(=O)COc3ccc(S(=O)(=O)N4CCCC4)cc32)c1 2.51 µM [activator, single point]
COc1ccc(S(=O)(=O)NCc2ccc(C(=O)NCCCN3CCCC(C)C3)cc2)cc1 (stereo not given) 1 µM [activator, full curve, poor fit]
CCC(C)n1c(=N)c(C#N)cc2c(=O)n3cc(C)ccc3nc21 (stereo not given) 5.01 µM [activator, single point]
Cc1ccc(C(=O)Oc2ccc(C(=S)N3CCOCC3)cc2)cc1 5.62 µM [activator, partial curve, poor fit]
O=C(NNC(=O)C1[C@H]2CCCC[C@@H]12)Nc1cccc2ccccc12 (stereo not given in full) 3.16 µM [activator, partial curve, poor fit]
CC1CCC(NC(=O)CCn2ccc3cc(S(=O)(=O)N4CCCC4)ccc32)CC1 (stereo not given) 5.01 µM [activator, single point]
CCCCn1c(N)c(N(CC(C)C)C(=O)C2CCN(S(=O)(=O)c3ccc(F)cc3)CC2)c(=O)[nH]c1=O 28.2 µM [activator, single point]
CCN(CC)CCNC(=O)Cn1nc(Cc2ccncc2)c2ccccc2c1=O 2 µM [activator, partial curve, poor fit]
CCn1c(=O)c(=O)n(CC)c2cc(S(=O)(=O)Nc3cc(C)ccc3C)ccc21 2.82 µM [activator, single point]
Cc1ccc(C)c(NS(=O)(=O)c2c(C)ccc3nsnc23)c1 10 µM [activator, single point]
Cn1c(COc2ccc(Cl)cc2)nnc1SCc1ncc(-c2ccccc2)o1 12.6 µM [activator, partial curve, poor fit]
Cc1cc(OCC(=O)NCc2ccccn2)c2c(C)c(Cc3ccccc3)c(=O)oc2c1 3.55 µM [activator, single point]
CC(=O)N1CCCc2cc(S(=O)(=O)N3CCCC(C(=O)NCc4ccccc4)C3)ccc21 (stereo not given) 0.447 µM [activator, full curve, poor fit]
CCC(CC)C(=O)Nc1nnc(SCC(=O)NC2CC2)s1 7.94 µM [activator, partial curve, poor fit]
COc1ccc(-n2nnnc2SCC(=O)NCc2cccs2)cc1 28.2 µM [activator, single point]
C/C(=N\NS(=O)(=O)c1ccc(Cl)cc1)c1ccc(O)cc1 28.2 µM [activator, single point]
C=CCn1c(SC)nccc1=O 12.6 µM [activator, single point]
COC(=O)c1ccc(C2C(Oc3ccccc3C)C(=O)N2CCc2ccc(OC)c(OC)c2)cc1 (stereo not given) 2.24 µM [activator, partial curve, poor fit]
O=c1c2ccccc2nc2n1C(CBr)CS2 (stereo not given) 7.94 µM [activator, single point]
COc1ccc(S(=O)(=O)N2CCCCCC2)cc1C(=O)N(C)Cc1ccc(F)cc1 10 µM [activator, single point]
COc1cccc(NCc2cc(=O)oc3cc(C)c(O)cc23)c1 3.16 µM [activator, single point]
Nc1c(-c2cccs2)cnc2c(-c3ccc(F)cc3)cnn12 5.01 µM [activator, single point]
Cc1cc(=O)n2nc(N3CCCC(C(=O)NCc4cccc(Cl)c4)C3)sc2n1 (stereo not given) 5.01 µM [activator, partial curve, poor fit]
Cc1cccn2c(=O)c(/C=C(\C#N)C(N)=O)c(N3CCN(c4ccccc4)CC3)nc12 5.01 µM [activator, single point]
COc1ccc(OCC(=O)NCc2ccc(Cl)cc2)cc1 5.01 µM [activator, single point]
CN(C)CCCN(C(=O)COc1ccc(Cl)cc1)c1nc2cc3c(cc2s1)OCO3 3.98 µM [activator, partial curve, poor fit]
O=c1c2cc([N+](=O)[O-])ccc2nc2n1CCC2 1 µM [activator, partial curve, poor fit]
Cc1ccc(N2C(=O)CC(NNC(=O)Cc3ccc(F)cc3)C2=O)cc1Cl (stereo not given) 4.47 µM [activator, single point]
Cc1ccc(S(=O)(=O)Nc2ccc(C(=O)NC3CC3)cc2)cc1 5.01 µM [activator, single point]
CCOc1cc(/C=N/NC(=O)c2ccc(N(C)S(=O)(=O)c3ccccc3)cc2)ccc1OC 5.01 µM [activator, single point]
Cc1cc(C)c(S(=O)(=O)c2cccc(Br)c2C)c(=O)[nH]1 0.501 µM [activator, full curve, poor fit]
CNNC(=S)NCCC1=CCCCC1 3.55 µM [activator, single point]
CCCNC(=O)Nc1cccc(C(=O)OC)c1 5.62 µM [activator, partial curve, poor fit]

Nothing new here: entries from further up.
Potency, inconclusive:
CCN(CC)CCNC(=O)Cn1nc(Cc2ccncc2)c2ccccc2c1=O 2 µM [activator, partial curve, poor fit]
CCn1c(=O)c(=O)n(CC)c2cc(S(=O)(=O)Nc3cc(C)ccc3C)ccc21 2.82 µM [activator, single point]

Following part:

Potency, inactive:
COc1cc(-n2c(=O)c3ccccc3n(CC(=O)c3ccc(Br)cc3)c2=O)cc(OC)c1OC
CCCCNC(=O)Nc1nnc(-c2ccccc2)o1
NC(=O)Nc1ccc(Nc2ccccc2)cc1
O=C(N/N=C/C(Br)=C/c1ccccc1)c1n[nH]c2c1CCC2
COc1ccc(C(=O)Nc2cccc([N+](=O)[O-])c2)cc1Br
CCC(C(=O)NCCC1=CCCCC1)n1nc(C)c2c(C)n(-c3ccccc3)nc2c1=O (stereo not given)
NC(=O)CCN1CCCCC1
CCOc1ccc(OCC)c(S(=O)(=O)N2CCC(C)CC2)c1
CC(C)C[C@H]1CN=C(Nc2ccccc2)N1CC1CCC(C(C)(C)C)CC1 (stereo not given in full)
COc1cccc(-c2ncc3ccccc3c2COC(=O)c2ccc(F)cc2)c1
COc1cc(CNCCc2ccccc2)cc(Br)c1OCC(=O)Nc1ccccc1C
Cc1ccc(S(=O)(=O)c2nc(-c3ccco3)oc2N2CCC(C)CC2)cc1
NC(=O)NC(=O)COC(=O)/C=C/c1cccc(Br)c1
CCOC(=O)C1CCN(Cc2ccccc2C)CC1
CN(C(=O)c1ccco1)c1nnc(-c2ccc(F)cc2)s1
Cc1ccc(C(=O)Nc2ccc(C(=O)N/N=C/c3ccc(C)o3)cc2)cc1
O=C(N/N=C/c1cc(O)ccc1[N+](=O)[O-])c1ccc2c(c1)OCCO2
CC1=CC(C)(C)N(C(=O)CN2C(=O)CCC2=O)c2ccc(C)cc21
COc1ccc2c(c1)c(=O)oc1cc(OCC(=O)NC3CC3)ccc12
COc1cc2c(cc1OC)CN(C(=O)c1ccc3[nH]c(C)c(C)c3c1)CC2
O=C1COc2ccc(C(=O)/C=C/c3ccccc3)cc2N1
N/C(=N\c1nc2ccccc2o1)NC(=O)c1ccccc1NC(=O)c1ccccc1
Cc1cc(Br)ccc1NC(=O)CNC(=O)CN(C)C1CCS(=O)(=O)C1 (stereo not given)

activation, inconclusive:
CC(C)Oc1cccc(C(=O)C2CCCN(C(=O)c3ccoc3)C2)c1 (stereo not given) -51.6% [activator]
CC(NS(=O)(=O)c1ccc(OCC(=O)NCc2ccccn2)cc1)c1ccccc1 (stereo not given) 34.9% [activator]
